Like-named read-outs stand apart in the source and are kept apart here.
Test system: human skin fibroblasts
Test: High-throughput cell migration assay (Oris Pro Cell Migration Assay plate) / standardized viability
Type: cell-based
Source text: Mouse MSC carrying Npas2-LacZ reporter gene, as described by Hassan N, et al., PLoS One. 2017; 12(8):e0183359, which is incorporated by reference herein in its entirety, was immortalized using SV40 in order to accommodate a large-scale HTS. […] This cell system was used to screen FDA Approved Drug Library (1120 compounds). The same library was also screened for cell viability by Calcein AM Hoechst 33342 staining Cell migration assays using the Oris™ Pro Cell Migration Assay plate, as described by Joy M E et al., PloS one. 2014; 9(2):e88350, which is incorporated by reference herein in its entirety, was used for a high-throughput migration assay using human skin fibroblasts
The combined Z score was used to identify hit compounds (Table 1).

| Compound | Migration (standardized viability) Z Score (Table 2, additional Npas2 expression suppressors) | Migration (standardized viability) Z Score |
| --- | --- | --- |
| CC(C)NC[C@H](O)COc1ccc(CC(N)=O)cc1 [(S)-(-)-Atenolol, (S)-(−)-Atenolol] | 0.429 |  |
| CN1[C@@H]2CC[C@H]1CC(OC(=O)C(CO)c1ccccc1)C2.CN1[C@@H]2CC[C@H]1CC(OC(=O)C(CO)c1ccccc1)C2.O.O=S(=O)(O)O (some centres unmarked) [Atropine sulfate monohydrate] |  | 0.181 |
